Results taken from article PMC7229820.
Results are given in words; binding and its absence hold for the method and conditions named. Binding seen in cells or lysates may run through a third protein. Some results given as binding are weak or reduced against the parent protein; the word gives no strength. Blank lines part the entries; values can stand above or below the molecule they belong to.

The chains behind the UniProt entries cited, without tags or fusion partners.
UniProt Q3URK3: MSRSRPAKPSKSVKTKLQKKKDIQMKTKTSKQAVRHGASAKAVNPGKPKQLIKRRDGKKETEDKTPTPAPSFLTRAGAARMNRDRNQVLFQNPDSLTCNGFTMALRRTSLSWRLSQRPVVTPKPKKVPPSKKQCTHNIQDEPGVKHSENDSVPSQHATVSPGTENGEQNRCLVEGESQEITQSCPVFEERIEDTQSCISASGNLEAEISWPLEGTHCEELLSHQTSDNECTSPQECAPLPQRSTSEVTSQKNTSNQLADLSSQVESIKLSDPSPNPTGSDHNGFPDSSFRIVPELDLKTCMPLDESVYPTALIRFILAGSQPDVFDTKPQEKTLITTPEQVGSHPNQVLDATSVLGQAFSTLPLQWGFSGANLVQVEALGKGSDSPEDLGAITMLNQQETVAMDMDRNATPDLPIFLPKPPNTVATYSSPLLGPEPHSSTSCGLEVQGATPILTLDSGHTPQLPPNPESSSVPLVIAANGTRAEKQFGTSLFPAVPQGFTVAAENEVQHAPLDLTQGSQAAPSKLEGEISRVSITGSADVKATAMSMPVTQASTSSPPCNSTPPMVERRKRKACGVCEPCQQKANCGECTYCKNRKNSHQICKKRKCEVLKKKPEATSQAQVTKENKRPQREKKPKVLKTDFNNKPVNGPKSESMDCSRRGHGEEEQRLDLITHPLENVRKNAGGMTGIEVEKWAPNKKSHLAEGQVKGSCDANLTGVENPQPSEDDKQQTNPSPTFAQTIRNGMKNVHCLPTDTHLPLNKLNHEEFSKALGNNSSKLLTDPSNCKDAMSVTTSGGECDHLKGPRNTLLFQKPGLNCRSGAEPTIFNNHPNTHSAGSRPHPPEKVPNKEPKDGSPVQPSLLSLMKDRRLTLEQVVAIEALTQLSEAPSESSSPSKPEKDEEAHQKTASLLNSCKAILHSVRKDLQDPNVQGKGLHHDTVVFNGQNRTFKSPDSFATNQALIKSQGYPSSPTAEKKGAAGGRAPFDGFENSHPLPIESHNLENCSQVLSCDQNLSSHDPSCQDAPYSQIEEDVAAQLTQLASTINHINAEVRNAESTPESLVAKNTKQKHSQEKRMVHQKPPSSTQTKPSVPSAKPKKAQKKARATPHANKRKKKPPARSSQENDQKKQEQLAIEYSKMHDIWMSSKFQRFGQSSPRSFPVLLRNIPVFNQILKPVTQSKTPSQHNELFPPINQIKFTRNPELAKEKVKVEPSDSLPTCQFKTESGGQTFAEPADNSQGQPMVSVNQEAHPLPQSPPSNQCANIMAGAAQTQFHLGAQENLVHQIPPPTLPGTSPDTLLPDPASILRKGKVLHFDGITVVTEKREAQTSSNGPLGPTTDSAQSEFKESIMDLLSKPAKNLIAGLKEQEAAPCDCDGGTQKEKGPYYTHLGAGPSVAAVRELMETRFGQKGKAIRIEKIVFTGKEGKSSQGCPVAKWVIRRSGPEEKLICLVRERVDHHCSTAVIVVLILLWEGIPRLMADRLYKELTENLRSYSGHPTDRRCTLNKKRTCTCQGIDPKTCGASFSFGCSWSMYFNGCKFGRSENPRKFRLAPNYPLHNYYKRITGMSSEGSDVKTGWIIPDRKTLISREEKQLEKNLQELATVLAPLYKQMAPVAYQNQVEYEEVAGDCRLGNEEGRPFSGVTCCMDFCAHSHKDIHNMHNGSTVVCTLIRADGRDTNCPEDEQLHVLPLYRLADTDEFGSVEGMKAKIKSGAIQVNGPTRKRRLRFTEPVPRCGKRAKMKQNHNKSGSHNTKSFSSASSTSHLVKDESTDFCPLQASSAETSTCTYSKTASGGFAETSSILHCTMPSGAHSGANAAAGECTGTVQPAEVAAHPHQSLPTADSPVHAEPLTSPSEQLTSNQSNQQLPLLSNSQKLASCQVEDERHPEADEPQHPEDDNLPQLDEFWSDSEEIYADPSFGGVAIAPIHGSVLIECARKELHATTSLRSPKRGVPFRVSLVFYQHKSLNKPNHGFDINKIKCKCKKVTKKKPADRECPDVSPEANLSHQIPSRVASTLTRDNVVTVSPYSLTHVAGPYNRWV

Key:
[1] = biological target: T1, NONO (mouse (endogenous in mESCs)) (UniProt Q99K48); assay: co-IP; lightly sonicated mESC nuclear extracts incubated with 2 ug NONO antibody, TET1 antibody or control IgG and protein A/G agarose beads at 4 C overnight; washed five times in 50 mM Tris-HCl pH 7.9, 150 mM KCl, 5 mM MgCl2, 0.2 mM EDTA, 5% glycerol, 0.1% NP-40; Western blot
T1 sequence: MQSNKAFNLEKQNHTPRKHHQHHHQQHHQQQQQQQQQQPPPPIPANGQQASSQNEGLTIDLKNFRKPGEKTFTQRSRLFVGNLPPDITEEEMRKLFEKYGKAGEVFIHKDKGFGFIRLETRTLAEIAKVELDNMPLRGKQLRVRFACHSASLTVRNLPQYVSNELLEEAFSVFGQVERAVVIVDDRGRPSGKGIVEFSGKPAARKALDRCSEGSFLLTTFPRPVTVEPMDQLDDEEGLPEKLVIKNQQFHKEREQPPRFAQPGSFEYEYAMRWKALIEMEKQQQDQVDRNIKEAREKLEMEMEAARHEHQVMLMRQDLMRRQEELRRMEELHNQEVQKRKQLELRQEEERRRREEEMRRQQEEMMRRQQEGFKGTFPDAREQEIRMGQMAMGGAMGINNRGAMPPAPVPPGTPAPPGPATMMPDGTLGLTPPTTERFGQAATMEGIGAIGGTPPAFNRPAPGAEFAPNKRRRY

[2] = biological target: Ten-Eleven Translocation 1 (TET1) (mouse (endogenous in mESCs)) (UniProt Q3URK3); assay: as above

binding [1]: binds
Molecule: Ten-Eleven Translocation 1 (TET1) (from UniProt Q3URK3 1-2039)

binding [2]: binds
B1: NONO (protein, UniProt Q99K48 1-473)
chain: T1 sequence
